Measurements published in paper PMC4117600.
Results are given in words; binding and its absence hold for the method and conditions named. Some entries that bind do so weakly or less than the wild type. For some assays here: Sequences can lack the tags named with a protein.

B1: macrophage-derived chemokine (MDC/CCL22), unlabeled (ligand, UniProt O00626 25-93)
chain: GPYGANMEDSVCCRDYVRYRLPLRVVKHFYWTSDSCPRPGVVLLTFRDKEICADPRVPWVKMILNKLSQ
B2: Alexa-647-labeled CCL22-SNAP fusion protein (ligand, UniProt O00626 25-93)
chain: B1 chain
modifications: Alexa-647 label

Key:
[1] = compound: T1, CC chemokine receptor 4 (CCR4), human (human) (UniProt P51679); assay: flow cytometry on cells; binding of anti-CCR4 scFv fragments to DT40/CCR4 cells in the presence of increasing concentrations of unlabeled CCL22 or CCL17; bound scFv detected with anti-cMyc antibody and PE conjugate; only the binder purified
T1 sequence: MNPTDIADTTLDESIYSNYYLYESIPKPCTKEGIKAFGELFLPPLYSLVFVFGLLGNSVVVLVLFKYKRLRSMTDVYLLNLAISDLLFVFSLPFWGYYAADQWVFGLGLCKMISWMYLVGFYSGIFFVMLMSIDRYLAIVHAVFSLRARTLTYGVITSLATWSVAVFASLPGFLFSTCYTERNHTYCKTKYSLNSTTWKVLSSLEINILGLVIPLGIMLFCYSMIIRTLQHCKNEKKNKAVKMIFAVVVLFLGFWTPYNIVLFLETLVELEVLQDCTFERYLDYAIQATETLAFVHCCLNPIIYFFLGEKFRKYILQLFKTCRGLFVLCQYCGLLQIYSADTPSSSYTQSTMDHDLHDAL

[2] = compound: T1, ; assay: flow cytometry on cells; competitive inhibition on DT40/CCR4 cells: biotinylated CCL17 (3.12×10^5 nM as printed; detected with PE-streptavidin) or Alexa-647-labeled CCL22-SNAP (50 nM) competed with increasing concentrations of unlabeled IgG or ligand; only the binder purified

Row | Binder | binding [1] | binding [2]
1 | B1 | binds | 
2 | B2 |  | binds
